Cleaved PARP after 72 h of treatment

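The test systems are human melanoma cell lines, treated with two drugs together for 72 h and then stained and imaged. Values are the share of nuclei positive for cleaved PARP as a percentage of the same share in the DMSO control: 100 is the control level, higher means more apoptosis. Every drug was used at one fixed concentration, the higher of two screened. No replicate spread is given; individual values may be noisy. Basal and induced levels differ widely between cell lines.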
This is part of the screen, not chosen by result.
An entry leaves out what has no value listed here.
A dash means that no value is listed here.

First drug in all entries: SNS-314, 0.004 µM, O=C(Nc1cccc(Cl)c1)Nc1ncc(CCNc2ncnc3ccsc23)s1

Drugs:
NVP-BEZ235: Cn1c(=O)n(-c2ccc(C(C)(C)C#N)cc2)c2c3cc(-c4cnc5ccccc5c4)ccc3ncc21 at 0.02 µM
XAV939: Oc1nc(-c2ccc(C(F)(F)F)cc2)nc2c1CSCC2 at 10 µM
IMD-0354: O=C(Nc1cc(C(F)(F)F)cc(C(F)(F)F)c1)c1cc(Cl)ccc1O at 0.08 µM
CP-690550: C[C@@H]1CCN(C(=O)CC#N)C[C@@H]1N(C)c1ncnc2[nH]ccc12 at 5 µM
PF-04217903: OCCn1cc(-c2cnc3nnn(Cc4ccc5ncccc5c4)c3n2)cn1 at 5 µM
BI-D1870: CC(C)CCN1c2nc(Nc3cc(F)c(O)c(F)c3)ncc2N(C)C(=O)C1C (stereo not shown) at 1 µM
GW9662: O=C(Nc1ccccc1)c1cc([N+](=O)[O-])ccc1Cl at 10 µM
nilutamide: CC1(C)NC(=O)N(c2ccc([N+](=O)[O-])c(C(F)(F)F)c2)C1=O at 5 µM
perifosine: CCCCCCCCCCCCCCCCCCOP(=O)([O-])OC1CC[N+](C)(C)CC1 at 2 µM
nutlin-3: COc1ccc(C2=N[C@@H](c3ccc(Cl)cc3)[C@@H](c3ccc(Cl)cc3)N2C(=O)N2CCNC(=O)C2)c(OC(C)C)c1 at 0.5 µM
everolimus: CO[C@H]1C[C@@H]2CC[C@@H](C)[C@@](O)(O2)C(=O)C(=O)N2CCCC[C@H]2C(=O)O[C@H]([C@H](C)C[C@@H]2CC[C@@H](OCCO)[C@H](OC)C2)CC(=O)[C@H](C)/C=C(\C)[C@@H](O)[C@@H](OC)C(=O)[C@H](C)C[C@H](C)/C=C/C=C/C=C/1C at 0.1 µM
vincristine: CC[C@]1(O)C[C@H]2CN(CCc3c([nH]c4ccccc34)[C@@](C(=O)OC)(c3cc4c(cc3OC)N(C=O)[C@H]3[C@@](O)(C(=O)OC)[C@H](OC(C)=O)[C@]5(CC)C=CCN6CC[C@]43[C@@H]65)C2)C1 at 0.0005 µM
GW441756: Cn1cc(/C=C2\C(=O)Nc3cccnc32)c2ccccc21 at 2 µM
BMS-536924: Cc1cc(N2CCOCC2)cc2[nH]c(-c3c(NC[C@@H](O)c4cccc(Cl)c4)cc[nH]c3=O)nc12 at 1 µM
SU6656: CN(C)S(=O)(=O)c1ccc2c(c1)/C(=C/c1cc3c([nH]1)CCCC3)C(=O)N2 at 2 µM
YM155: COCC[n+]1c2c(n(Cc3cnccn3)c1C)C(=O)c1ccccc1C2=O at 0.002 µM
BI-78D3: O=c1[nH]nc(Sc2ncc([N+](=O)[O-])s2)n1-c1ccc2c(c1)OCCO2 at 1 µM
etoposide: COc1cc([C@@H]2c3cc4c(cc3[C@@H](O[C@@H]3O[C@@H]5CO[C@@H](C)O[C@H]5[C@H](O)[C@H]3O)[C@H]3COC(=O)[C@H]23)OCO4)cc(OC)c1O at 0.1 µM
CX-4945: O=C(O)c1ccc2c(c1)nc(Nc1cccc(Cl)c1)c1ccncc12 at 2 µM
RKI-983: C[C@@H](N)c1ccc(C(=O)Nc2ccnc3[nH]ccc23)cc1 at 2 µM
cisplatin: N.N.[Cl][Pt][Cl] at 8 µM
PF-562271: CN(c1ncccc1CNc1nc(Nc2ccc3c(c2)CC(=O)N3)ncc1C(F)(F)F)S(C)(=O)=O at 0.4 µM
ruxolitinib: N#CC[C@H](C1CCCC1)n1cc(-c2ncnc3[nH]ccc23)cn1 at 5 µM
FH535: Cc1cc([N+](=O)[O-])ccc1NS(=O)(=O)c1cc(Cl)ccc1Cl at 5 µM
dasatinib: Cc1nc(Nc2ncc(C(=O)Nc3c(C)cccc3Cl)s2)cc(N2CCN(CCO)CC2)n1 at 0.02 µM
Src-I1: COc1cc2ncnc(Nc3ccc(Oc4ccccc4)cc3)c2cc1OC at 10 µM
TCS401: O=C(O)C(=O)Nc1sc2c(c1C(=O)O)CCNC2 at 8.33 µM
vorinostat: O=C(CCCCCCC(=O)Nc1ccccc1)NO at 0.4 µM
L-779450: Oc1cc(-c2nc(-c3ccccc3)[nH]c2-c2ccncc2)ccc1Cl at 1 µM
tozasertib: Cc1cc(Nc2cc(N3CCN(C)CC3)nc(Sc3ccc(NC(=O)C4CC4)cc3)n2)n[nH]1 at 0.03 µM
MK-2206: NC1(c2ccc(-c3nc4ccn5c(=O)[nH]nc5c4cc3-c3ccccc3)cc2)CCC1 at 2 µM
bortezomib: CC(C)C[C@H](NC(=O)[C@H](Cc1ccccc1)NC(=O)c1cnccn1)B(O)O at 0.005 µM
CHIR-265: Cn1c(Nc2ccc(C(F)(F)F)cc2)nc2cc(Oc3ccnc(-c4ncc(C(F)(F)F)[nH]4)c3)ccc21 at 0.4 µM
docetaxel: CC(=O)O[C@@]12CO[C@@H]1C[C@H](O)[C@@]1(C)C(=O)[C@H](O)C3=C(C)[C@@H](OC(=O)[C@H](O)[C@@H](NC(=O)OC(C)(C)C)c4ccccc4)C[C@@](O)([C@@H](OC(=O)c4ccccc4)[C@H]21)C3(C)C at 0.0005 µM

| Partner | MZ2-MEL | C32 | A2058 | UACC-257 | 501mel |
|---|---|---|---|---|---|
| CP-690550 | 300 | 130 | 73.6 | 83.8 | - |
| IMD-0354 | 106 | 99.6 | 101 | 134 | - |
| tozasertib | 279 | 195 | 696 | 127 | - |
| Src-I1 | 167 | 120 | 119 | 67.7 | 108 |
| SU6656 | 560 | 156 | 554 | 51.8 | - |
| etoposide | 215 | 155 | 187 | 87.4 | - |
| bortezomib | 18100 | 1650 | 6010 | 60.5 | - |
| docetaxel | 869 | 262 | 898 | 157 | - |
| BMS-536924 | 628 | 125 | 240 | 117 | - |
| vincristine | 409 | 149 | 630 | 114 | - |
| FH535 | 157 | 135 | 141 | 202 | 58.7 |
| cisplatin | 152 | 108 | 102 | 159 | - |
| PF-04217903 | 110 | 351 | 165 | 194 | - |
| PF-562271 | 469 | 372 | 251 | 74.9 | - |
| dasatinib | 523 | 1150 | 368 | 120 | - |
| MK-2206 | 208 | 186 | 78.0 | 229 | - |
| ruxolitinib | 460 | 274 | 263 | 99.5 | - |
| everolimus | 67.6 | 264 | 119 | 44.6 | - |
| GW441756 | 20.3 | 104 | 71.5 | 43.2 | 182 |
| nilutamide | 214 | 89.4 | 370 | 46.0 | - |
| CX-4945 | 637 | 280 | 231 | 99.1 | - |
| CHIR-265 | 239 | 1100 | 313 | 88.0 | - |
| NVP-BEZ235 | 106 | 156 | 104 | 37.7 | - |
| YM155 | 406 | 116 | 1330 | 3240 | - |
| BI-78D3 | 177 | 227 | 137 | 175 | - |
| L-779450 | 61.7 | 121 | 115 | 80.3 | 122 |
| TCS401 | 168 | 116 | 233 | 46.6 | 227 |
| BI-D1870 | 222 | 150 | 509 | 31.6 | 63.6 |
| vorinostat | 129 | 184 | 290 | 85.7 | - |
| GW9662 | 716 | 139 | 339 | 30.5 | 75.7 |
| RKI-983 | 931 | 469 | 600 | 147 | - |
| perifosine | 342 | 411 | 299 | 107 | - |
| XAV939 | 222 | 118 | 155 | 42.7 | 85.2 |
| nutlin-3 | 193 | 280 | 151 | 89.5 | - |

For reference, 3 entries once more:

{"partner": "IMD-0354", "MZ2-MEL": 106, "C32": 99.6, "A2058": 101, "UACC-257": 134}
{"partner": "everolimus", "MZ2-MEL": 67.6, "C32": 264, "A2058": 119, "UACC-257": 44.6}
{"partner": "tozasertib", "MZ2-MEL": 279, "C32": 195, "A2058": 696, "UACC-257": 127}

Source: doi:10.1371/journal.pone.0140310, primary screening data, rounded.